{"source": "patent US8278464B2", "about": "“Insecticides” (Syngenta Crop Protection LLC, priority 2006, dated 2012)", "key": {"[1]": {"tested_on": "Tetranychus urticae (Two-Spotted Spider Mite)", "experiment": "Activity against Tetranychus urticae, bean leaf discs (Example B8)", "format": "in vivo", "conditions": "400 ppm; checked 8 days later"}, "[2]": {"tested_on": "Cydia pomonella (Codling Moth)", "experiment": "Activity against Cydia pomonella, diet cubes (Example B10)", "format": "in vivo", "conditions": "400 ppm; 14 days incubation"}}, "note": "Some results were stated once for a whole list of compounds, not compound by compound.", "data": [{"smiles": "Cc1cc(Cl)cc(C(=O)NC2(C)CS(=N)(=O)C2)c1NC(=O)c1cc(C(F)(F)F)nn1-c1ncccc1Cl", "note": "(single isomer, unassigned) [T17.1.2 (diastereomer B)]", "values": [{"measurement": "activity", "setting": "[1]", "value": "over 80%"}]}, {"smiles": "Cc1cc(Cl)cc(C(=O)NC2CS(=O)(=O)C2)c1NC(=O)c1cc(OCC(F)(F)F)nn1-c1ncccc1Cl", "note": "[T13.1.21]", "values": [{"measurement": "activity", "setting": "[1]", "value": "over 80%"}]}, {"smiles": "Cc1cc(C#N)cc(C(=O)NC2(C)CS(=O)(=O)C2)c1NC(=O)c1cc(C(F)(F)F)nn1-c1ncccc1Cl", "note": "[T13.1.92]", "values": [{"measurement": "activity", "setting": "[2]", "value": "over 80%"}]}, {"smiles": "Cc1cc(Cl)cc(C(=O)NC2(C)CS(=N)(=O)C2)c1NC(=O)c1cc(C(F)(F)F)nn1-c1ncccc1Cl", "note": "(single isomer, unassigned) [T17.1.2 (diastereomer A)]", "values": [{"measurement": "activity", "setting": "[2]", "value": "over 80%"}]}, {"smiles": "Cc1cc(Cl)cc(C(=O)NC2(C)C[S+]([O-])C2)c1NC(=O)c1cc(C(F)(F)F)nn1-c1ncccc1Cl", "note": "(single isomer, unassigned) [T9.1.2 (diastereomer A)]", "values": [{"measurement": "activity", "setting": "[1]", "value": "over 80%"}, {"measurement": "activity", "setting": "[2]", "value": "over 80%"}]}]}
